This is one part of the list.

For the assay, the target named is T1, OsSMF1 (Oryza sativa, UniProt Q6ZLB0 1-436).
T1 sequence: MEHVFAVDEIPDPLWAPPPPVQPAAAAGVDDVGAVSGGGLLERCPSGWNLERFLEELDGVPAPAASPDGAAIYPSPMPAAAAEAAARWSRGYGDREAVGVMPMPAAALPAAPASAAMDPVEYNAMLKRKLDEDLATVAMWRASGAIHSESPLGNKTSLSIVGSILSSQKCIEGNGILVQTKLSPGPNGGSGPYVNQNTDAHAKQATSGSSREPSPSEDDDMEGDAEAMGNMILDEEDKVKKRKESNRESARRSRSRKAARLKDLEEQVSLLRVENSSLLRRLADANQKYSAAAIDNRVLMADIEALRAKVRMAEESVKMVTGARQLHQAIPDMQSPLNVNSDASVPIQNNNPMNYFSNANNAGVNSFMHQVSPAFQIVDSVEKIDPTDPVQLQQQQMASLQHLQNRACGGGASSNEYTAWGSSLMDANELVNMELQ
Briefly: protein-binding microarray (RPBM); PBS, 2% BSA, 51.3 ng/ul salmon testes DNA, 50 uM zinc acetate, 200 nM TF, 25 C, 1 h; high values mean tight binding. Particulars: protein: recombinant; tags: N-terminal polyhistidine and DsRed monomer fusion (pET32a); chain copies: 2; label: CyDye5-dUTP incorporated in the synthesized complementary strand; 3' TTTTT single-stranded linker to array surface; dsDNA, one strand shown. Summed up: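 Transcription factors, each fused N-terminally to a polyhistidine tag and DsRed, were expressed in E. coli BL21-CodonPlus and purified on Ni–NTA. A custom Agilent array was made double-stranded by primer extension with Cy5-dUTP and blocked with 2% BSA. It was incubated with 200 nM protein in PBS, 2% BSA, salmon testes DNA and 50 µM zinc acetate at 25 °C for 1 h, then washed. The binding signal is per-feature fluorescence intensity (arbitrary units) read on an Axon 4000B scanner.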
Regarding “TTTAATGTTAGAGATACAGGTGGTGATGTGTAATTTTGTCCGGAGTCACCTAGTGCAG”, the binding signal is 5960 fluorescence intensity (a.u.). With “GTACTCCGACGACTCGCCGCCGTCGACGCGGGCCCCGGCCCGGAGTCACCTAGTGCAG”, the binding signal is 3650 fluorescence intensity (a.u.). As for “AAGCGAACTCCCACAGTAAATTTCATCTTAGCTAAATCATCGGAGTCACCTAGTGCAG”, the figure is 3580 fluorescence intensity (a.u.); as for “GTCATTGCTGATAGTTGTTTTATCCCTATCAGTTAGCGTCCGGAGTCACCTAGTGCAG”, 24500 fluorescence intensity (a.u.); as for “TAAATCTATGTGTGTGGACGTAGCAGTTCATGTTCATGCTCGGAGTCACCTAGTGCAG”, 3520 fluorescence intensity (a.u.). As for “TTCCTCCATCTTGACGTGGGACCCACCTGGAGATTCATCTCGGAGTCACCTAGTGCAG”, the figure is 4710 fluorescence intensity (a.u.); as for “CATAAGTGTTCATGCTTTCTCCATCATGCTGGAGCCTGTACGGAGTCACCTAGTGCAG”, 3880 fluorescence intensity (a.u.); as for “TATTTAACGGTTTCTTTTACCCGTAACGAAGCACGTGTATCGGAGTCACCTAGTGCAG”, 4170 fluorescence intensity (a.u.). For “ACACCGAGACCGCTGGCTTCTTCTGCTTCTGTGGCAGCGGCGGAGTCACCTAGTGCAG” the value was 26700 fluorescence intensity (a.u.). Turning to “GCGGTGGAGAGATGAAGCCAGGAGGACGTCAGCGTCGGCGCGGAGTCACCTAGTGCAG”, the binding signal was 6400 fluorescence intensity (a.u.).

In the case of “TGGCTTTCTGCTACCCTTTTGTAAGTTGTAACTTTCTTGACGGAGTCACCTAGTGCAG”, the binding signal was 17100 fluorescence intensity (a.u.). Take “GTAGTATACGCCAGACGTGAGCTCTCTTCCTTCCTCGTCTCGGAGTCACCTAGTGCAG”: the binding signal was 14400 fluorescence intensity (a.u.). In the case of “AAACGTAATCTAATAACAAAACAAATTACAGAACTGTAAACGGAGTCACCTAGTGCAG”, the binding signal is 11100 fluorescence intensity (a.u.). Regarding “CGCCGCTGACGCCGTGCCGTACCTTCCTCTGCCGCTGCCACGGAGTCACCTAGTGCAG”, the binding signal was 5060 fluorescence intensity (a.u.). As for “CTCCCACCTCGCGCCATCGGATTCCACCTTCCCAGGTCTCCGGAGTCACCTAGTGCAG”, the figure is 13200 fluorescence intensity (a.u.); as for “ACCTTGTGTCTGCACCATCCGTTTCCGATCGACCAGATCCCGGAGTCACCTAGTGCAG”, 3990 fluorescence intensity (a.u.).

Turning to “CCAACACGTCACGCATCTGGGCTTTCCTTCCTCCTCCTCCCGGAGTCACCTAGTGCAG”, the binding signal was 14100 fluorescence intensity (a.u.).

Consider “CCACGACTTTTCTCGTCGTCACATCAGCGTCTCCTCTTCTCGGAGTCACCTAGTGCAG”, for which the binding signal is 3770 fluorescence intensity (a.u.). “TCACAGCAGCGCAACGTGTCATGCCGCCCGGTGGGCCCCGCGGAGTCACCTAGTGCAG”: the binding signal was 4230 fluorescence intensity (a.u.).

On to “CCCTCGCTCCGCCGTCTCCCCTCGCCGCCGTTCCCCTTCCCGGAGTCACCTAGTGCAG”, for which the binding signal was 3230 fluorescence intensity (a.u.). With “AGCCTGCGCCGCGAACTCGGGGCCCTCCTCGAGCAGGTGGCGGAGTCACCTAGTGCAG”, the binding signal was 3280 fluorescence intensity (a.u.). Consider “CTCTTTCATAGTCCATGAGGTCTGCAGCTAGCTGACCAGACGGAGTCACCTAGTGCAG”, for which the binding signal is 4420 fluorescence intensity (a.u.). Take “TGCACTTTGCGTGGACTTAAACATGCGTCAACACGTGTGTCGGAGTCACCTAGTGCAG”: the binding signal was 6890 fluorescence intensity (a.u.).

As for “GTGGTGTTTGAAATCATGAGTCATCACTCATCAAGGCTGCCGGAGTCACCTAGTGCAG”, the binding signal is 7430 fluorescence intensity (a.u.). As for “AAGATGGACAACCCTCAATAGATTGGGCTATGGGCTTGTTCGGAGTCACCTAGTGCAG”, the figure is 33900 fluorescence intensity (a.u.); as for “TCAGTCTCGTGTATATCCTAGCACCGACGATCCCCATACTCGGAGTCACCTAGTGCAG”, 34900 fluorescence intensity (a.u.).

On to “GGGCAAGTGGGCTGACATAGGCATTTGCTCCTTCCCCTAACGGAGTCACCTAGTGCAG”, for which the binding signal is 3820 fluorescence intensity (a.u.). In the case of “GGAGTAGTATTTTGAGTCGCCGTCACCGTCGGCTCCCTCACGGAGTCACCTAGTGCAG”, the binding signal is 4000 fluorescence intensity (a.u.). As for “CAAAAGCATCTTGGAGGAGACACAGTCAGTTGGCCATACTCGGAGTCACCTAGTGCAG”, the figure is 3600 fluorescence intensity (a.u.); as for “CCCGCTCGCCGCCACCGTGTCACGCCGGCAGCCTCAGGTTCGGAGTCACCTAGTGCAG”, 4780 fluorescence intensity (a.u.); as for “TGTGTGCGGCCTGTGGGCTGGCACGACACGGCCCGGTGCGCGGAGTCACCTAGTGCAG”, 3340 fluorescence intensity (a.u.). As for “CATCTGCAGACATCCTGACATCCCCTCGGGGCAGATGGCGCGGAGTCACCTAGTGCAG”, the binding signal is 5740 fluorescence intensity (a.u.). In the case of “TGCTGGCGCCCTCCTATGCCACGTCAGCTATGCGATGCCACGGAGTCACCTAGTGCAG”, the binding signal is 21500 fluorescence intensity (a.u.). As for “TGTTGCATTGTCATATGTTTGGGTGGCCATGCATGAATCACGGAGTCACCTAGTGCAG”, the figure is 5390 fluorescence intensity (a.u.); as for “TTAATGTGTGTGAATGACACGGATCCCACGTATATGTTTTCGGAGTCACCTAGTGCAG”, 6180 fluorescence intensity (a.u.); as for “AATATGGAACATCAAAATCTGACACACGATTTCTTAAGGCCGGAGTCACCTAGTGCAG”, 4070 fluorescence intensity (a.u.). “GGCCCAAACAAGTCCTTCCCGTAATCGCGTTCGTCATCATCGGAGTCACCTAGTGCAG”: the binding signal is 5450 fluorescence intensity (a.u.). Regarding “ATCCTATCCCATATTAATTATTCTTCGAATTAGATTCGAGCGGAGTCACCTAGTGCAG”, the binding signal was 15900 fluorescence intensity (a.u.). As for “TACTGAAACTTGTTGCTGATTATATCTGACCCAAGTGGTTCGGAGTCACCTAGTGCAG”, the binding signal is 3320 fluorescence intensity (a.u.). As for “AAACAAGCCCTTATCTTTCCAACTCACTCTCGCGTTCGCGCGGAGTCACCTAGTGCAG”, the figure is 4190 fluorescence intensity (a.u.). As for “CGCGGGTTGTCACGTCGATACAGCTCCCTCGTCGAACTGGCGGAGTCACCTAGTGCAG”, the figure is 4000 fluorescence intensity (a.u.); as for “CGCGCGCGCGAGTTCCCCGAGATCCGCGAGATCTCCGTCGCGGAGTCACCTAGTGCAG”, 3190 fluorescence intensity (a.u.). On to “TTTAGATGGCGGTTTTGGCTGACGTGGCACATATGTGGCTCGGAGTCACCTAGTGCAG”, for which the binding signal was 33100 fluorescence intensity (a.u.). As for “ACCTCCCGGAGGAGGAGACCACGCCAAGCGTGGACGTGGACGGAGTCACCTAGTGCAG”, the figure is 4010 fluorescence intensity (a.u.); as for “AAAATACAATGTGATTTCAAGCTACATTCTAAGCCAAAGCCGGAGTCACCTAGTGCAG”, 3200 fluorescence intensity (a.u.); as for “CGGGTAAATAAACCAGCAGCTGCACGTTAGCACGTACGCCCGGAGTCACCTAGTGCAG”, 4050 fluorescence intensity (a.u.). For the sequence “CGTGAGATTTGGCTGGGGAGTGGTGGTGGTGCGCCGCGGGCGGAGTCACCTAGTGCAG”, the binding signal is 3440 fluorescence intensity (a.u.). Take “GCGTGCTTTAGTTGGTGTCAACAATGAATTGTCAAAGCCACGGAGTCACCTAGTGCAG”: the binding signal is 3440 fluorescence intensity (a.u.). In the case of “CGAGCCCCGCGAGAAACAGCTATCCACGTCATCCGCGGCGCGGAGTCACCTAGTGCAG”, the binding signal was 20900 fluorescence intensity (a.u.). As for “TCGCCTCAAGTGCACTTAGCTTCACACTGTACACGTCATACGGAGTCACCTAGTGCAG”, the figure is 15700 fluorescence intensity (a.u.). For “ACTTGCCACGGTGCCGCCTAACAGGCAGCCGTACCTGCCTCGGAGTCACCTAGTGCAG” the value was 3320 fluorescence intensity (a.u.); for “TGTATGTCGGGTTGTCGATGATCAAGCCAGTGACACGCTTCGGAGTCACCTAGTGCAG”, 4000 fluorescence intensity (a.u.). For “AACTGGCACCTATAGACCTTTTCCCACCTCTGCGGGTTAACGGAGTCACCTAGTGCAG” the value was 36500 fluorescence intensity (a.u.); for “TTAGTGGCGCCTGTTTTCTTGTAACGGTGTGACCTGTTGCCGGAGTCACCTAGTGCAG”, 29300 fluorescence intensity (a.u.).
